Test results published in the supplement of paper PMC7661543.
Differences between knockout arms are mostly noise.

Tested on: BT-20
Experiment: relative cell number vs DMSO control (72 h) (% of DMSO); higher = less growth inhibition (more cells)
Protocol: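 QMAP-Seq: a pool of 5 breast cancer cell lines (ZR-75-1, SKBR3, HCC-38, MDA-MB-231, BT-20), each carrying 12 doxycycline-inducible Cas9 sgRNA perturbations (11 knockouts plus non-targeting sgNT), was treated with compounds for 72 h at four 10-fold doses (10 nM-10 uM or 1 nM-1 uM range). Barcodes were amplified and sequenced, and cell number was interpolated from 293T spike-in standard curves. The result is expressed as % of the median of DMSO wells. Two biological replicates.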

Cc1cc2c(F)c(Oc3ncnn4cc(OC[C@@H](C)O)c(C)c34)ccc2[nH]1 [Brivanib]
Details	relative cell number
sgRNA knockout: sgATF3, 10 nM	102
sgRNA knockout: sgATF3, 100 nM	86
sgRNA knockout: sgATF3, 1000 nM	108
sgRNA knockout: sgATF3, 10000 nM	87.1
sgRNA knockout: sgATF4, 10 nM	110
sgRNA knockout: sgATF4, 100 nM	76.8
sgRNA knockout: sgATF4, 1000 nM	98.5
sgRNA knockout: sgATF4, 10000 nM	94.6
sgRNA knockout: sgATF6, 10 nM	100
sgRNA knockout: sgATF6, 100 nM	80.1
sgRNA knockout: sgATF6, 1000 nM	98.3
sgRNA knockout: sgATF6, 10000 nM	102
sgRNA knockout: sgATG7, 10 nM	101
sgRNA knockout: sgATG7, 100 nM	88.5
sgRNA knockout: sgATG7, 1000 nM	122
sgRNA knockout: sgATG7, 10000 nM	93
sgRNA knockout: sgERN1, 10 nM	102
sgRNA knockout: sgERN1, 100 nM	76.3
sgRNA knockout: sgERN1, 1000 nM	93.7
sgRNA knockout: sgERN1, 10000 nM	105
sgRNA knockout: sgHSF1, 10 nM	112
sgRNA knockout: sgHSF1, 100 nM	85.5
sgRNA knockout: sgHSF1, 1000 nM	100
sgRNA knockout: sgHSF1, 10000 nM	88.66
sgRNA knockout: sgHSF2, 10 nM	106.5
sgRNA knockout: sgHSF2, 100 nM	83
sgRNA knockout: sgHSF2, 1000 nM	91.2
sgRNA knockout: sgHSF2, 10000 nM	96.87
sgRNA knockout: sgKEAP1, 10 nM	113
sgRNA knockout: sgKEAP1, 100 nM	81.7
sgRNA knockout: sgKEAP1, 1000 nM	107.1
sgRNA knockout: sgKEAP1, 10000 nM	92.7
sgRNA knockout: sgNFE2L2, 10 nM	118
sgRNA knockout: sgNFE2L2, 100 nM	80.3
sgRNA knockout: sgNFE2L2, 1000 nM	108
sgRNA knockout: sgNFE2L2, 10000 nM	87
sgRNA knockout: sgSLC35F2, 10 nM	99.2
sgRNA knockout: sgSLC35F2, 100 nM	105
sgRNA knockout: sgSLC35F2, 1000 nM	99.1
sgRNA knockout: sgSLC35F2, 10000 nM	102
sgRNA knockout: sgXBP1, 10 nM	108
sgRNA knockout: sgXBP1, 100 nM	93.1
sgRNA knockout: sgXBP1, 1000 nM	94.3
sgRNA knockout: sgXBP1, 10000 nM	91.1

O=C(O)CCCc1ccc(N(CCCl)CCCl)cc1 [Chlorambucil]
Details	relative cell number
sgRNA knockout: sgATF3, 10 nM	89.9
sgRNA knockout: sgATF3, 100 nM	101
sgRNA knockout: sgATF3, 1000 nM	94
sgRNA knockout: sgATF3, 10000 nM	88.3
sgRNA knockout: sgATF4, 10 nM	95.3
sgRNA knockout: sgATF4, 100 nM	91.7
sgRNA knockout: sgATF4, 1000 nM	106
sgRNA knockout: sgATF4, 10000 nM	68.6
sgRNA knockout: sgATF6, 10 nM	84.7
sgRNA knockout: sgATF6, 100 nM	91.3
sgRNA knockout: sgATF6, 1000 nM	103
sgRNA knockout: sgATF6, 10000 nM	80.6
sgRNA knockout: sgATG7, 10 nM	83.8
sgRNA knockout: sgATG7, 100 nM	93.9
sgRNA knockout: sgATG7, 1000 nM	112
sgRNA knockout: sgATG7, 10000 nM	96.9
sgRNA knockout: sgERN1, 10 nM	96.6
sgRNA knockout: sgERN1, 100 nM	89.1
sgRNA knockout: sgERN1, 1000 nM	98.7
sgRNA knockout: sgERN1, 10000 nM	77.5
sgRNA knockout: sgHSF1, 10 nM	93.3
sgRNA knockout: sgHSF1, 100 nM	98.3
sgRNA knockout: sgHSF1, 1000 nM	102
sgRNA knockout: sgHSF1, 10000 nM	83.998
sgRNA knockout: sgHSF2, 10 nM	89.2
sgRNA knockout: sgHSF2, 100 nM	90.8
sgRNA knockout: sgHSF2, 1000 nM	78
sgRNA knockout: sgHSF2, 10000 nM	91.3
sgRNA knockout: sgKEAP1, 10 nM	92
sgRNA knockout: sgKEAP1, 100 nM	87.3
sgRNA knockout: sgKEAP1, 1000 nM	104
sgRNA knockout: sgKEAP1, 10000 nM	85.5
sgRNA knockout: sgNFE2L2, 10 nM	91.6
sgRNA knockout: sgNFE2L2, 100 nM	89.3
sgRNA knockout: sgNFE2L2, 1000 nM	95.2
sgRNA knockout: sgNFE2L2, 10000 nM	78.1
sgRNA knockout: sgSLC35F2, 10 nM	89.4
sgRNA knockout: sgSLC35F2, 100 nM	108
sgRNA knockout: sgSLC35F2, 1000 nM	83.6
sgRNA knockout: sgSLC35F2, 10000 nM	92.2
sgRNA knockout: sgXBP1, 10 nM	89.8
sgRNA knockout: sgXBP1, 100 nM	96.4
sgRNA knockout: sgXBP1, 1000 nM	93.8
sgRNA knockout: sgXBP1, 10000 nM	80.9

Nc1nc(Cl)nc2c1ncn2[C@@H]1O[C@H](CO)[C@@H](O)[C@@H]1F [Clofarabine]
Details	relative cell number
sgRNA knockout: sgATF3, 10 nM	76.7
sgRNA knockout: sgATF3, 100 nM	71.3
sgRNA knockout: sgATF3, 1000 nM	30.3
sgRNA knockout: sgATF3, 10000 nM	25.5
sgRNA knockout: sgATF4, 10 nM	106
sgRNA knockout: sgATF4, 100 nM	76.6
sgRNA knockout: sgATF4, 1000 nM	29.7
sgRNA knockout: sgATF4, 10000 nM	26.1
sgRNA knockout: sgATF6, 10 nM	91.9
sgRNA knockout: sgATF6, 100 nM	77.5
sgRNA knockout: sgATF6, 1000 nM	22.1
sgRNA knockout: sgATF6, 10000 nM	21.8
sgRNA knockout: sgATG7, 10 nM	94.5
sgRNA knockout: sgATG7, 100 nM	82.9
sgRNA knockout: sgATG7, 1000 nM	34.1
sgRNA knockout: sgATG7, 10000 nM	27.1
sgRNA knockout: sgERN1, 10 nM	91.3
sgRNA knockout: sgERN1, 100 nM	85.2
sgRNA knockout: sgERN1, 1000 nM	30.6
sgRNA knockout: sgERN1, 10000 nM	23.6
sgRNA knockout: sgHSF1, 10 nM	104
sgRNA knockout: sgHSF1, 100 nM	77.4
sgRNA knockout: sgHSF1, 1000 nM	28.5
sgRNA knockout: sgHSF1, 10000 nM	23.2
sgRNA knockout: sgHSF2, 10 nM	75.4
sgRNA knockout: sgHSF2, 100 nM	73.9
sgRNA knockout: sgHSF2, 1000 nM	33.5
sgRNA knockout: sgHSF2, 10000 nM	25.9
sgRNA knockout: sgKEAP1, 10 nM	92.54
sgRNA knockout: sgKEAP1, 100 nM	76.1
sgRNA knockout: sgKEAP1, 1000 nM	34.2
sgRNA knockout: sgKEAP1, 10000 nM	25
sgRNA knockout: sgNFE2L2, 10 nM	112
sgRNA knockout: sgNFE2L2, 100 nM	73
sgRNA knockout: sgNFE2L2, 1000 nM	24.8
sgRNA knockout: sgNFE2L2, 10000 nM	19.3
sgRNA knockout: sgSLC35F2, 10 nM	103
sgRNA knockout: sgSLC35F2, 100 nM	83.2
sgRNA knockout: sgSLC35F2, 1000 nM	27.67
sgRNA knockout: sgSLC35F2, 10000 nM	27.4
sgRNA knockout: sgXBP1, 10 nM	99.1
sgRNA knockout: sgXBP1, 100 nM	80.4
sgRNA knockout: sgXBP1, 1000 nM	27.3
sgRNA knockout: sgXBP1, 10000 nM	22.7
